Data published in patent US20230323475A1, “TEST METHOD, OF DIVIDING BLASTIC PLASMACYTOID DENDRITIC CELL NEOPLASM (BPDCN) INTO SUBTYPES” (JAPANESE FOUNDATION FOR CANCER RESEARCH, priority 2016, published 2023).

System: BPDCN cell lines (CAL-1, PMDC05)
Experiment: Cell survival rate of BPDCN cell lines with HDAC and BCL2 family protein inhibitors
Type: cell-based
Conditions: 1 nM to 10000 nM, 48 hours, not associated with presence or absence of MYC expression, FIG. 11
From the text: The cell lines used were 4 lines: BPDCN cell lines CAL-1 (MYC^+BPDCN; Non Patent Literature 11; obtained from Nagasaki University) and PMDC05 (MYC-BPDCN; Non Patent Literature 12; obtained from Niigata University), a positive control plasma cell neoplasm KMS12PE (obtained from JCRB Cell Bank) having the increased expression of MYC, and a negative control leukemia cell line K562 (obtained from JCRB Cell Bank) in which no MYC gene rearrangement was seen.
The CAL-1, PMDC05, or KMN12PE cells at 4000 cells/well or K562 at 1000 cells/well were inoculated to 96-well cell culture plates. […] The cell survival rates were measured using a cell growth assay kit using CTG reagent (Cell Titer-Glo, manufactured by Promega Corp.).
Agents effective for the growth suppression of BPDCN cell lines were further studied. The study was conducted on HDAC inhibitors, vorinostat (manufactured by Selleck Chemicals LLC) and panobinostat (manufactured by Selleck Chemicals LLC), and a BCL2 family protein inhibitor, venetoclax (manufactured by LKT Laboratories Inc.). Each inhibitor was added in the concentration of 1 nM to 10000 nM to the 4 cell lines described above. The survival rates of these cells were analyzed 48 hours later (FIG. 11). […] These agents have the possibility of serving as a therapeutic drug for BPDCN, for which the treatment options are limited at present.

## O=C(CCCCCCC(=O)Nc1ccccc1)NO [vorinostat]
  inhibitory effect on the BPDCN cell lines (survival rate): strong inhibitory effect
